Experimental data from the supplement of paper PMC6411743.
± gives the standard deviation of the averaged measurements. The list shows a part of the results.

Chains of the proteins cited; added tags and fusions are not shown. Lines headed by an entry give the natural chain unless they say otherwise; changes in a name come on top.
UniProt Q8NC56: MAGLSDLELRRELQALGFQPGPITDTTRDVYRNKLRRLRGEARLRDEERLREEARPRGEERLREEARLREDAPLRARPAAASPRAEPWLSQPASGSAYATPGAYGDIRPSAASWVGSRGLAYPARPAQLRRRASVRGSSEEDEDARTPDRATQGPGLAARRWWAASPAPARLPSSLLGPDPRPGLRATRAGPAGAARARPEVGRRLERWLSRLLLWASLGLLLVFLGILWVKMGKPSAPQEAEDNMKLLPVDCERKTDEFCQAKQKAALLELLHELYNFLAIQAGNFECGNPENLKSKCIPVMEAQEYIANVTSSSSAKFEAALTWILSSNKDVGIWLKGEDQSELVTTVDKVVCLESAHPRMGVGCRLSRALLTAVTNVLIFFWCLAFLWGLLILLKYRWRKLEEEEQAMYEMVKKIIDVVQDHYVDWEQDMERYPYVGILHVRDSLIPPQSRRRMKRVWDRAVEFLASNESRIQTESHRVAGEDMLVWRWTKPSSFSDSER
UniProt Q86YS6: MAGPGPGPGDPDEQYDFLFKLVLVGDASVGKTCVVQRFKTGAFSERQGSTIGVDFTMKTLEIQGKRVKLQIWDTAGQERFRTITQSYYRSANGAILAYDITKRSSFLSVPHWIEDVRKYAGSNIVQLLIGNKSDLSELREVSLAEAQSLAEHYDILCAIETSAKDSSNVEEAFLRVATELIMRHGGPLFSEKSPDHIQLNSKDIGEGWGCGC
UniProt Q8IWY9: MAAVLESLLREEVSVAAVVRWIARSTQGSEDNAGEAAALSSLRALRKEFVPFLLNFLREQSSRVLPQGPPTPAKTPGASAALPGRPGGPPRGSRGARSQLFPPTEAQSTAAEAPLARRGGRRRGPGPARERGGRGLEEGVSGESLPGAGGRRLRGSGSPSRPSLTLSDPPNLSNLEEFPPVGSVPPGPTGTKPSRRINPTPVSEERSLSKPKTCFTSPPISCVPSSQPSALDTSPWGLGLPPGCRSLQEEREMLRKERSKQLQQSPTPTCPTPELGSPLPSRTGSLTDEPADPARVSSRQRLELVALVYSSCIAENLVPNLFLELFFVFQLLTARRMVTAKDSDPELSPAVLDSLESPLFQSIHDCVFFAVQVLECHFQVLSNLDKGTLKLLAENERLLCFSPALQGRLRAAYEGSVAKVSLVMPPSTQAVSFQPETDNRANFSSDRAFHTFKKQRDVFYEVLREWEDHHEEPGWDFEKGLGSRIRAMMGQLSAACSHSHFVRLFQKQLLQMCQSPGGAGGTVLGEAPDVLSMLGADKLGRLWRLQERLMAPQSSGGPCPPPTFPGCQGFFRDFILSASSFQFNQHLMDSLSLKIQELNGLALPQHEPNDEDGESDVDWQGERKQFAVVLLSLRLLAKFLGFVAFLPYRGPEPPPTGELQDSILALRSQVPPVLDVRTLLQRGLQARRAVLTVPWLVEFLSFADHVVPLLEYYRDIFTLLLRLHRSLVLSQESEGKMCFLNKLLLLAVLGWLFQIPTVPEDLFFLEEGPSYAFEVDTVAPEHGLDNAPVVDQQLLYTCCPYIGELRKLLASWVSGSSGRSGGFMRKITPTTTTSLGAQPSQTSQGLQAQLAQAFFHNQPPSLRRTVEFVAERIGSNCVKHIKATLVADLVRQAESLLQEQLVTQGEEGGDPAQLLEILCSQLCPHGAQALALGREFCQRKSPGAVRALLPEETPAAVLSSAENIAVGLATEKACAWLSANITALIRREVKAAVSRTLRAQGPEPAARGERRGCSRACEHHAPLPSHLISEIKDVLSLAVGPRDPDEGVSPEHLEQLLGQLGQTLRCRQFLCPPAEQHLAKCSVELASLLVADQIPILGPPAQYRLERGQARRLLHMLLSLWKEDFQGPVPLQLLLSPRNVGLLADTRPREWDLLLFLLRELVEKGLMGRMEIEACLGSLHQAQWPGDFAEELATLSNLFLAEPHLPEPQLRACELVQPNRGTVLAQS
UniProt Q8NHV4, whole entry: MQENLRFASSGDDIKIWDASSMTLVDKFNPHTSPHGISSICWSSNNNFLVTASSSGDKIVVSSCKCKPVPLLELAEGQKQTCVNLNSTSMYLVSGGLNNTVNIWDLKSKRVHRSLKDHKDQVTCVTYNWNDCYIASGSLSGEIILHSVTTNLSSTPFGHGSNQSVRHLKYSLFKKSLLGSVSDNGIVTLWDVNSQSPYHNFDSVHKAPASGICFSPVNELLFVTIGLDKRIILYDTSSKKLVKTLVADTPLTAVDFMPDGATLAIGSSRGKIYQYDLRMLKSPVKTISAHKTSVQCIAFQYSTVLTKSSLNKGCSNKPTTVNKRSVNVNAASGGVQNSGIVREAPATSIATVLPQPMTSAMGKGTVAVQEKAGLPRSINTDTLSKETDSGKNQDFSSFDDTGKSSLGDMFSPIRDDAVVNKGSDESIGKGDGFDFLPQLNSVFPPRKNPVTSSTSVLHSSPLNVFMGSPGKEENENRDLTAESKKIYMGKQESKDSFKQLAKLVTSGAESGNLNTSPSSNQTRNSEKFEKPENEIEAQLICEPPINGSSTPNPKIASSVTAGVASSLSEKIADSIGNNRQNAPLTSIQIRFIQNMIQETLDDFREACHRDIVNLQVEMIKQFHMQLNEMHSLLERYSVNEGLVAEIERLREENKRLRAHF
UniProt Q8IYA6: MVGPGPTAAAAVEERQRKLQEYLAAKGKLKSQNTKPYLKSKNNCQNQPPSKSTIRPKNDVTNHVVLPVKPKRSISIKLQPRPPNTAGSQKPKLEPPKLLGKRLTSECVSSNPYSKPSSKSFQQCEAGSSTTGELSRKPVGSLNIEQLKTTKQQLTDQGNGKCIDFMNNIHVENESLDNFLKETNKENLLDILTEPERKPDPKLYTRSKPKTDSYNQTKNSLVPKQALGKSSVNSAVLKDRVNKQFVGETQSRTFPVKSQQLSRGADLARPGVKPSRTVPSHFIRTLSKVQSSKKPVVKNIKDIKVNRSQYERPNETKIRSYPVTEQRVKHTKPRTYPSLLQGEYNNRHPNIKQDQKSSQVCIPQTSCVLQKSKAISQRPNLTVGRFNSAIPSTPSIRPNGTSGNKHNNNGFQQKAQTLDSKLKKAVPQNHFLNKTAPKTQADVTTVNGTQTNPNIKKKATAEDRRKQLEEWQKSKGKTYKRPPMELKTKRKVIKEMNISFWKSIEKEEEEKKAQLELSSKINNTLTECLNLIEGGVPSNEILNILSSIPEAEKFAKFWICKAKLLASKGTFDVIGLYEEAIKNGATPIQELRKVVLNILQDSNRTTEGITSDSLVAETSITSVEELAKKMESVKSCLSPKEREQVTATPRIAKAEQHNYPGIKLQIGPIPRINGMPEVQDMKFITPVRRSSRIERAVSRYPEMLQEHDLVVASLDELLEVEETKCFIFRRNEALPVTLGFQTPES
UniProt Q8N0X7: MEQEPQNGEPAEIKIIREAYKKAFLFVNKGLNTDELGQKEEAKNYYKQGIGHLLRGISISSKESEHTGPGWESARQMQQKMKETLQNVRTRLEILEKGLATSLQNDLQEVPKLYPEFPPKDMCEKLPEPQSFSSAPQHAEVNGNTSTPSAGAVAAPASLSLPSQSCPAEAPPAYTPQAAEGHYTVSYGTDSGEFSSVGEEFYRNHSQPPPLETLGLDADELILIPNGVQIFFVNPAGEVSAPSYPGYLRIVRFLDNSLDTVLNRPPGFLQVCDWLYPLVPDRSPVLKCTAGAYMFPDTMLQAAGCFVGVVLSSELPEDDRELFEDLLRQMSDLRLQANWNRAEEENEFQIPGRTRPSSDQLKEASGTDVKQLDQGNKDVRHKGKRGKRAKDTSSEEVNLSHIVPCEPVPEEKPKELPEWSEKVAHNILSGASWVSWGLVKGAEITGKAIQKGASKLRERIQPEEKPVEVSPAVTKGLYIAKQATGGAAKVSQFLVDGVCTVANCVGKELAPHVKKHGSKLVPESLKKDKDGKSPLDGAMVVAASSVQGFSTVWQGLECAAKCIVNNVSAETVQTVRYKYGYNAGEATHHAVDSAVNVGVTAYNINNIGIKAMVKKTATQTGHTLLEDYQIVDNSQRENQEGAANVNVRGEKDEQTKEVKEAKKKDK
UniProt Q8NBX0: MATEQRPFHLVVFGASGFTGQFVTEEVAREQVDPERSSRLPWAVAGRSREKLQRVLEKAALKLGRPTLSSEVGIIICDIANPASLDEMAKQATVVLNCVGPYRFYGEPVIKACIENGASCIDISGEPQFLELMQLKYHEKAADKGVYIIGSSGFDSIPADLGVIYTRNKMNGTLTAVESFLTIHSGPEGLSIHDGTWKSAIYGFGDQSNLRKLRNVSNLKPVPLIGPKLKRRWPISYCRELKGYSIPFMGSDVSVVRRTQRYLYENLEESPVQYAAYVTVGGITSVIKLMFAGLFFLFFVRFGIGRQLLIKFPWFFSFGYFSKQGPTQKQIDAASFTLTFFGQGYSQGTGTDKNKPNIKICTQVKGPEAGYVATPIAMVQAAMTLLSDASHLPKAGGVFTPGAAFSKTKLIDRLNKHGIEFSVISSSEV
UniProt Q8NFI3: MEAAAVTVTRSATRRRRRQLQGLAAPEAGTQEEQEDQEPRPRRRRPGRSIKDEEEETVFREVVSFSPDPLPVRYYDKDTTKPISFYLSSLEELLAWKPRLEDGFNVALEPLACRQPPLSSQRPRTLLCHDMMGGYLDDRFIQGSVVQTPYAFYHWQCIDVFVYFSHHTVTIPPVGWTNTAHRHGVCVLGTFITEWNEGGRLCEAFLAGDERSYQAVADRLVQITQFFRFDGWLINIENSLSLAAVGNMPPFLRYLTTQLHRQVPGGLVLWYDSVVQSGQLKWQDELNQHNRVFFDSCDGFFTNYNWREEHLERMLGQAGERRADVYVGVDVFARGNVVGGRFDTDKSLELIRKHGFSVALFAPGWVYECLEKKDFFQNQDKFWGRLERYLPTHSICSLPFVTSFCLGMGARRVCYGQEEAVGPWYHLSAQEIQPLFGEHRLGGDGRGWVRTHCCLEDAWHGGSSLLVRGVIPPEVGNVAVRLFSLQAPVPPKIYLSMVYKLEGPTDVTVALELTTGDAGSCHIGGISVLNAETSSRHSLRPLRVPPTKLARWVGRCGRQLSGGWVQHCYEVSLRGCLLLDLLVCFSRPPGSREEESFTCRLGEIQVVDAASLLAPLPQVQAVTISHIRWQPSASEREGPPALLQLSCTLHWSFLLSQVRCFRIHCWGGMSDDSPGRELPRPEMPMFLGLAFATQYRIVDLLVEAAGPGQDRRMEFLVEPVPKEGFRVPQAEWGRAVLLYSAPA
UniProt Q8NFY9: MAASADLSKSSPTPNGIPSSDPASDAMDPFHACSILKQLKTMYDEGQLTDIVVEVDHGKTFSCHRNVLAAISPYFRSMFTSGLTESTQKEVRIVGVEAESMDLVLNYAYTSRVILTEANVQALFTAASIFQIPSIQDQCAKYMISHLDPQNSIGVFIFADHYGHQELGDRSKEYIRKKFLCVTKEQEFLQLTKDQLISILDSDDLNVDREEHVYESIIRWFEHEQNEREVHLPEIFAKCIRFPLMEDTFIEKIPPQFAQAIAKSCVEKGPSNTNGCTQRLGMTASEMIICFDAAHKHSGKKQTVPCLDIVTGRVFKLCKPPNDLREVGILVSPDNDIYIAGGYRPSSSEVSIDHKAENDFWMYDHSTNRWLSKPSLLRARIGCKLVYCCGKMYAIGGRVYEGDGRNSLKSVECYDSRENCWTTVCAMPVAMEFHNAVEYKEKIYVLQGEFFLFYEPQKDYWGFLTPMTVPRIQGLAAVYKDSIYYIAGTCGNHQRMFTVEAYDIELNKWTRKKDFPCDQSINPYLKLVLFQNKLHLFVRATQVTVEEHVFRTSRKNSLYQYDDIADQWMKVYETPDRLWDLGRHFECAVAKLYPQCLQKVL
UniProt Q8IYQ7: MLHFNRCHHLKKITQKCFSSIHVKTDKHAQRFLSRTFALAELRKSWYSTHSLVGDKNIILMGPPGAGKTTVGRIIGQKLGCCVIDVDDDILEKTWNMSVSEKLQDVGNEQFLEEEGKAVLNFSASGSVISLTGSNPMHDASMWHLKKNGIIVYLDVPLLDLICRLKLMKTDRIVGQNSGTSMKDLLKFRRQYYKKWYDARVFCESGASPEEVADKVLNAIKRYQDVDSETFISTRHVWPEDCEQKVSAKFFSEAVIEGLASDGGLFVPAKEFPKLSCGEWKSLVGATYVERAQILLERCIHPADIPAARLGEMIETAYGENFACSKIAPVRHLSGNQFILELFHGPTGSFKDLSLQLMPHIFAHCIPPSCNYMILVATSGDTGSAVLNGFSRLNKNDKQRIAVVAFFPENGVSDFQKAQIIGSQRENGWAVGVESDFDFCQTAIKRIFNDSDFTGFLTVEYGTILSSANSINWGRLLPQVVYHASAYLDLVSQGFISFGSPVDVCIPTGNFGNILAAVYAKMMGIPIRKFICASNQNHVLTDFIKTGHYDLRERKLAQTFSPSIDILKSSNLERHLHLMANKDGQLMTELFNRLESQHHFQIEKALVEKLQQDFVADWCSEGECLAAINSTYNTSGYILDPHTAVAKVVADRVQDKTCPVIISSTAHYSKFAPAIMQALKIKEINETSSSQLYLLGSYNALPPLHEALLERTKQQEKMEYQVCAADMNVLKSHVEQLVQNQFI

Compound: Nc1nc2c(ncn2[C@@H]2O[C@H](COP(=O)(O)OP(=O)(O)OP(=O)(O)O)[C@@H](O)[C@H]2O)c(=O)[nH]1 [guanosine triphosphate]
Assay: NP40-soluble protein abundance relative to vehicle (solubility fold change) (ratio); higher = more soluble protein in presence of GTP
In short: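 Across three independent experiments, values are fold changes against the detergent-processed vehicle for each replicate, based on vsn-normalised intensities. The samples were Jurkat crude lysate treated with eight concentrations (0.1 to 10 mM) for 10 min at room temperature and then 3 min at 37 °C. Lysate was solubilised with 0.8% NP40 and benzonase, ultracentrifuged, and the supernatant analysed by TMT-labelled LC-MS/MS.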

Target	NP40-soluble protein abundance (concentration: 0.1mM)	NP40-soluble protein abundance (concentration: 0.5mM)	NP40-soluble protein abundance (concentration: 1mM)	NP40-soluble protein abundance (concentration: 2mM)	NP40-soluble protein abundance (concentration: 4mM)	NP40-soluble protein abundance (concentration: 6mM)	NP40-soluble protein abundance (concentration: 8mM)	NP40-soluble protein abundance (concentration: 10mM)
UniProt Q8TDN6	1.08 ± 0.11	1.1 ± 0.15	1.1 ± 0.094	1.21 ± 0.074	1.27 ± 0.1	1.32 ± 0.14	1.33 ± 0.17	1.5 ± 0.14
UniProt Q8IWZ8	0.953 ± 0.042	0.961 ± 0.025	1.06 ± 0.085	1.09 ± 0.026	1.12 ± 0.048	1.13 ± 0.051	1.18 ± 0.095	1.19 ± 0.097
UniProt Q8IXQ5 and related entries	1.04 ± 0.15	0.983 ± 0.084	0.925 ± 0.072	1 ± 0.15	1.08 ± 0.17	1.11 ± 0.24	1.01 ± 0.23	1.03 ± 0.32
LEMD2 (UniProt Q8NC56)	1.09 ± 0.04	1.22 ± 0.11	1.32 ± 0.076	1.34 ± 0.15	1.34 ± 0.088	1.42 ± 0.11	1.48 ± 0.14	1.49 ± 0.21
UniProt Q8IUR7 and related entries	1.06 ± 0.05	1.06 ± 0.11	1.09 ± 0.14	1.13 ± 0.17	1.17 ± 0.2	1.16 ± 0.21	1.18 ± 0.27	1.11 ± 0.18
RAB43 (UniProt Q86YS6)	1.03 ± 0.075	0.995 ± 0.059	0.893 ± 0.047	0.929 ± 0.032	0.913 ± 0.031	0.894 ± 0.039	0.889 ± 0.068	0.851 ± 0.054
CHD6 (UniProt Q8TD26)	1.08 ± 0.043	1.07 ± 0.094	0.953 ± 0.03	1.03 ± 0.17	1.06 ± 0.15	0.981 ± 0.1	0.952 ± 0.024	0.94 ± 0.051
UniProt Q8IWY9 and related entries	1.06 ± 0.047	0.993 ± 0.014	1.02 ± 0.011	1.02 ± 0.045	1.02 ± 0.026	0.993 ± 0.049	1 ± 0.018	0.986 ± 0.028
UniProt Q8NHV4 and related entries	0.976 ± 0.041	1.03 ± 0.066	1.01 ± 0.046	1.07 ± 0.028	1.01 ± 0.072	1.1 ± 0.017	1.07 ± 0.081	1.13 ± 0.069
AGGF1 (UniProt Q8N302)	1.03 ± 0.11	1.03 ± 0.079	1.05 ± 0.089	1.08 ± 0.12	1.06 ± 0.046	1.05 ± 0.049	1.05 ± 0.042	1.08 ± 0.068
UniProt Q8NE01 and related entries	1.05 ± 0.048	0.991 ± 0.056	0.973 ± 0.028	0.948 ± 0.081	0.965 ± 0.055	0.927 ± 0.076	0.931 ± 0.053	0.896 ± 0.078
CKAP2L (UniProt Q8IYA6)	1.08 ± 0.13	1.06 ± 0.077	1.19 ± 0.13	1.19 ± 0.077	1.33 ± 0.24	1.32 ± 0.15	1.54 ± 0.16	1.72 ± 0.29
PRPF38A (UniProt Q8NAV1)	0.933 ± 0.018	0.938 ± 0.049	1.03 ± 0.056	0.953 ± 0.018	0.96 ± 0.046	0.974 ± 0.059	0.95 ± 0.068	0.954 ± 0.055
ZCCHC9 (UniProt Q8N567)	1.03 ± 0.035	1.04 ± 0.054	1.11 ± 0.04	1.16 ± 0.072	1.18 ± 0.083	1.2 ± 0.12	1.19 ± 0.12	1.27 ± 0.033
UniProt Q8N0X7	0.993 ± 0.023	1.02 ± 0.046	0.987 ± 0.027	0.983 ± 0.053	0.931 ± 0.05	0.979 ± 0.051	0.971 ± 0.024	1.01 ± 0.032
UniProt Q8N4C8 and related entries	1.1 ± 0.13	0.993 ± 0.014	1.1 ± 0.039	0.9658 ± 0.0049	0.966 ± 0.052	0.989 ± 0.027	1.103 ± 0.0074	1.06 ± 0.045

Part of the list above, comma-delimited:
Target,NP40-soluble protein abundance (concentration: 0.1mM),NP40-soluble protein abundance (concentration: 0.5mM),NP40-soluble protein abundance (concentration: 1mM),NP40-soluble protein abundance (concentration: 2mM),NP40-soluble protein abundance (concentration: 4mM),NP40-soluble protein abundance (concentration: 6mM),NP40-soluble protein abundance (concentration: 8mM),NP40-soluble protein abundance (concentration: 10mM)
UniProt Q8TDN6,1.08 ± 0.11,1.1 ± 0.15,1.1 ± 0.094,1.21 ± 0.074,1.27 ± 0.1,1.32 ± 0.14,1.33 ± 0.17,1.5 ± 0.14
RAB43 (UniProt Q86YS6),1.03 ± 0.075,0.995 ± 0.059,0.893 ± 0.047,0.929 ± 0.032,0.913 ± 0.031,0.894 ± 0.039,0.889 ± 0.068,0.851 ± 0.054
AGGF1 (UniProt Q8N302),1.03 ± 0.11,1.03 ± 0.079,1.05 ± 0.089,1.08 ± 0.12,1.06 ± 0.046,1.05 ± 0.049,1.05 ± 0.042,1.08 ± 0.068
UniProt Q8NE01 and related entries,1.05 ± 0.048,0.991 ± 0.056,0.973 ± 0.028,0.948 ± 0.081,0.965 ± 0.055,0.927 ± 0.076,0.931 ± 0.053,0.896 ± 0.078
ZCCHC9 (UniProt Q8N567),1.03 ± 0.035,1.04 ± 0.054,1.11 ± 0.04,1.16 ± 0.072,1.18 ± 0.083,1.2 ± 0.12,1.19 ± 0.12,1.27 ± 0.033
UniProt Q8N4C8 and related entries,1.1 ± 0.13,0.993 ± 0.014,1.1 ± 0.039,0.9658 ± 0.0049,0.966 ± 0.052,0.989 ± 0.027,1.103 ± 0.0074,1.06 ± 0.045

Next part

Target	NP40-soluble protein abundance (concentration: 0.1mM)	NP40-soluble protein abundance (concentration: 0.5mM)	NP40-soluble protein abundance (concentration: 1mM)	NP40-soluble protein abundance (concentration: 2mM)	NP40-soluble protein abundance (concentration: 4mM)	NP40-soluble protein abundance (concentration: 6mM)	NP40-soluble protein abundance (concentration: 8mM)	NP40-soluble protein abundance (concentration: 10mM)
SCCPDH (UniProt Q8NBX0)	0.943 ± 0.025	0.967 ± 0.042	0.912 ± 0.031	0.868 ± 0.054	0.873 ± 0.016	0.878 ± 0.022	0.849 ± 0.011	0.813 ± 0.043
UniProt Q8IW41 and related entries	1.09 ± 0.062	1.12 ± 0.045	1.04 ± 0.13	1.04 ± 0.015	0.943 ± 0.014	0.92 ± 0.11	0.897 ± 0.086	0.9015 ± 0.0035
UniProt Q8NFI3 and related entries	0.997 ± 0.05	1.07 ± 0.041	0.981 ± 0.063	0.993 ± 0.15	0.985 ± 0.11	0.944 ± 0.087	0.872 ± 0.037	0.938 ± 0.014
UniProt Q8IUH3 and related entries	0.9734 ± 0.0039	1.02 ± 0.038	1.01 ± 0.048	1.05 ± 0.039	1.06 ± 0.028	1.06 ± 0.072	1.09 ± 0.098	1.08 ± 0.079
KBTBD8 (UniProt Q8NFY9)	1.09 ± 0.11	1.15 ± 0.061	1.04 ± 0.076	0.984 ± 0.089	1.01 ± 0.059	1.01 ± 0.097	1.01 ± 0.13	1.03 ± 0.13
DTX3L (UniProt Q8TDB6)	1.04 ± 0.03	1.055 ± 0.009	1.04 ± 0.025	1.03 ± 0.024	1.08 ± 0.018	1.09 ± 0.016	1.12 ± 0.028	1.1 ± 0.037
UniProt Q8TCE6 and related entries	1.05 ± 0.026	1.03 ± 0.035	1.01 ± 0.015	1.05 ± 0.022	1.05 ± 0.025	1.03 ± 0.017	1.01 ± 0.039	0.998 ± 0.01
UniProt Q86X76-2|Q86X76 and related entries	1.08 ± 0.052	1.05 ± 0.056	0.961 ± 0.012	0.978 ± 0.044	0.946 ± 0.034	0.94 ± 0.037	0.932 ± 0.053	0.902 ± 0.064
NUBPL (UniProt Q8TB37)	1 ± 0.055	1.02 ± 0.036	0.959 ± 0.04	0.964 ± 0.047	0.945 ± 0.042	0.947 ± 0.053	0.911 ± 0.017	0.936 ± 0.045
UniProt Q8TDZ2 and related entries	1.01 ± 0.056	0.965 ± 0.069	0.946 ± 0.021	0.9475 ± 0.0091	0.9237 ± 0.0088	0.899 ± 0.019	0.921 ± 0.016	0.879 ± 0.058
THNSL1 (UniProt Q8IYQ7)	1.05 ± 0.017	1.06 ± 0.053	0.965 ± 0.043	1 ± 0.039	0.946 ± 0.05	0.9486 ± 0.0082	0.925 ± 0.028	0.923 ± 0.084
UniProt Q8TC07 and related entries	1.06 ± 0.019	1.04 ± 0.05	0.995 ± 0.012	0.984 ± 0.046	0.994 ± 0.011	0.965 ± 0.014	0.961 ± 0.03	0.904 ± 0.037
UniProt Q8IY95 and related entries	0.943 ± 0.042	0.994 ± 0.022	0.974 ± 0.056	0.955 ± 0.083	0.916 ± 0.063	0.931 ± 0.061	0.894 ± 0.066	0.902 ± 0.058
NUP37 (UniProt Q8NFH4)	1.04 ± 0.089	1.07 ± 0.17	0.955 ± 0.076	1.02 ± 0.19	1.02 ± 0.12	0.993 ± 0.12	0.914 ± 0.1	0.943 ± 0.13
UBR7 (UniProt Q8N806)	0.951 ± 0.035	0.949 ± 0.035	0.927 ± 0.053	0.905 ± 0.076	0.895 ± 0.064	0.878 ± 0.068	0.89 ± 0.045	0.884 ± 0.094
UniProt Q8N5C7 and related entries	1.07 ± 0.046	1.07 ± 0.03	1.09 ± 0.02	1 ± 0.089	1.01 ± 0.043	0.996 ± 0.048	1.055 ± 0.0044	1.09 ± 0.051
